We go through 1 compound from US20240261263A1, “COMPOUNDS AND METHODS TO SENSITIZE CANCER CELLS TO TYROSINE KINASE INHIBITORS” (Da Zen Theranostics, Inc., priority 2016, published 2024).

Molecules are shown by their SMILES.

For the assay, the system named is A549/DDP (Cisplatin Resistant). The experiment in a line: Crystal Violet cell proliferation assay, A549/DDP. The conditions noted are these: Homo sapiens, 72 h, read-out: IC50 of TKIs A549/DDP, TKI + 8 uM DZ1-SIM Amide, 72 h.

`COc1cc2ncnc(Nc3ccc(F)c(Cl)c3)c2cc1OCCCN1CCOCC1` [Gefitinib]: the IC50 was 1200 nM.
